Here are results for two compounds from US20090181975A1, “NEBIVOLOL IN THE TREATMENT OF SEXUAL DYSFUNCTION” (FOREST LABORATORIES HOLDINGS LIMITED, priority 2008, published 2009).

The subject of this series is diabetic rats. Description: Glycemia, arterial pressure and heart rate in STZ-diabetic rats after 10 days s.c. treatment. The class given is in vivo, rat (Sprague-Dawley). The following applies: 3 or 10 mg/kg/day s.c. for 10 days. The procedure: Male Sprague-Dawley rats were used as a model for this study. Diabetes was induced by a single injection of streptozotocin (STZ, 60 mg/kg; i.p.) dissolved in 0.1 M citric acid/trisodic citrate buffer (pH 4-4.5) and was assessed by glycemia determination 72 h after induction. Animals were kept, with free access to food and water, for 8 weeks before experimental assays. Eight weeks after induction of diabetes, rats show reduced erectile responses (Angulo et al., Naunyn-Schmiedeberg's Arch Pharmacol, 358(5), 529-37, 1998; Angulo et al., J. Sex Med., 2, 341-346, 2005). Blood glucose concentration was determined each week and just before the experiment. Insulin levels were not determined. […] After this period of treatment, the diabetic rats were anesthetized and ICP responses to electrical stimulation were evaluated. After an equilibration period, the PDE5 inhibitor sildenafil (0.3 mg/kg) or the vehicle (25% glycofurol) was intravenously administered. Forty five minutes later, ICP responses were again determined

For the compound `OC(CNCC(O)C1CCc2cc(F)ccc2O1)C1CCc2cc(F)ccc2O1` (racemic) [nebivolol, α,α′-iminobis(methylene)bis[6-fluoro-2-chromanmethanol]], the “effect on blood glucose concentrations in diabetic rats” value was “did not significantly alter”.
Consider `CC(C)NCC(O)COc1ccc(CC(N)=O)cc1` (centres unmarked) [atenolol], for which the “effect on blood glucose concentrations in diabetic rats” value is recorded as “did not significantly alter”.
